In paper PMC4666417:
Results are given in words; binding and its absence hold for the method and conditions named. For some assays here: Binding seen in cells or lysates may run through a third protein. Some results given as binding are weak or reduced against the parent protein; the word gives no strength.

Key:
[1] = molecular target: eEF1A, endogenous in HEK293T cells (human (endogenous in HEK293T)) (UniProt P68104); test: co-IP; HEK293T lysates (S100 buffer) with FLAG- or V5-tagged HIV-1 proteins; endogenous eEF1A captured with rabbit anti-eEF1A antibody on Protein G beads, 2 h at 4°C, washed with S100 buffer plus 0.1% Triton X-100; blot with anti-FLAG or anti-V5; also lysates incubated with 1 nM Did B, 100 nM CHX or DMSO (Fig 7A)
[2] = molecular target: eEF1A1 (eukaryotic elongation factor 1 subunit A1), MYC/DDK-tagged (human) (UniProt P68104); test: BLI; biotinylated eEF1 subunit (eEF1A1, eEF1B, eEF1D or eEF1G) immobilised on streptavidin biosensor; RT subunits, RT heterodimer, Gag or RTp66 mutants as analytes at 90, 30 and 10 nM (mutants at 90 nM); kinetic buffer 1 mM phosphate, 15 mM NaCl, 0.002% Tween-20, 0.1 mg/ml gelatine, 1000 rpm, OctetRed; both purified

Substance	binding [1]	binding [2]
RTp66-FLAG (from UniProt P04585 588-1147)	binds	–
recombinant 6×His RTp66, wild type (pDEST 40, BL21 AI) (from UniProt P04585 588-1147)	–	binds
